The target in assay [1] is T1, FLAG-tagged hamster SCAP (hamster) (UniProt P97260).
T1 sequence: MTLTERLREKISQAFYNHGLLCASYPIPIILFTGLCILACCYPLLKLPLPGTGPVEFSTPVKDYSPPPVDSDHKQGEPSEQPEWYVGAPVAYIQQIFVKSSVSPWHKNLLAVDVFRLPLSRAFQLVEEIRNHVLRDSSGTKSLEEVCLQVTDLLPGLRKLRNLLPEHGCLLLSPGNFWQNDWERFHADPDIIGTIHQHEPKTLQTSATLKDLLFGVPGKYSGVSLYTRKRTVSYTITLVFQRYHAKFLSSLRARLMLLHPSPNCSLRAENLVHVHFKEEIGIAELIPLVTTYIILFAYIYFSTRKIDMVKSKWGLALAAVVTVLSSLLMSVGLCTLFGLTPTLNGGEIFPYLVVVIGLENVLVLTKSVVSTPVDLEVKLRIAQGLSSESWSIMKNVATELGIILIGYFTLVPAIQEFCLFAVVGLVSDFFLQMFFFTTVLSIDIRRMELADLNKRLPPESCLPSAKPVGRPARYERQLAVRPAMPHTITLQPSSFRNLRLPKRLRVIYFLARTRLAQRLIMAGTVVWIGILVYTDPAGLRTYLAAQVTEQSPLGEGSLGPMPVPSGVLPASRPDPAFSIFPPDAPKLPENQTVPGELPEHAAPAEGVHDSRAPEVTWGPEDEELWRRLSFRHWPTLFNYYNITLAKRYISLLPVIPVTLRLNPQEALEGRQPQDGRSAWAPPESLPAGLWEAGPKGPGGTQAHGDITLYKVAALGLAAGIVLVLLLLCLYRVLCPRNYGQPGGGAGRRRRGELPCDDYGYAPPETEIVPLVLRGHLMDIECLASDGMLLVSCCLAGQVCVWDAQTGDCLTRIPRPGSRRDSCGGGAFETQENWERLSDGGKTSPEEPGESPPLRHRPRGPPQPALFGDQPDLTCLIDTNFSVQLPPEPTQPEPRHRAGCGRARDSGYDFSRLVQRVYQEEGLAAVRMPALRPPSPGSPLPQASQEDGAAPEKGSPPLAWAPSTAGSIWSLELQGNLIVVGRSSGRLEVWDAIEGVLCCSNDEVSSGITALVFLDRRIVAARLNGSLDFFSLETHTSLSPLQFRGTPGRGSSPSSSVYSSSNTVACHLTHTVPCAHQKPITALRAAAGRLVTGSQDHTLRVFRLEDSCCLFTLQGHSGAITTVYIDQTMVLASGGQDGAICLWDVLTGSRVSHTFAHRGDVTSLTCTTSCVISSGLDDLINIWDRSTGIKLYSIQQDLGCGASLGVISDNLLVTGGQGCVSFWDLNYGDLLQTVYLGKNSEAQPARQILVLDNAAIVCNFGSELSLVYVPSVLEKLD
The experiment in a line: co-IP.

In assay [2] the target is T2, FLAG-SCAP D451A/L452A (hamster) (UniProt P97260).
T2 sequence: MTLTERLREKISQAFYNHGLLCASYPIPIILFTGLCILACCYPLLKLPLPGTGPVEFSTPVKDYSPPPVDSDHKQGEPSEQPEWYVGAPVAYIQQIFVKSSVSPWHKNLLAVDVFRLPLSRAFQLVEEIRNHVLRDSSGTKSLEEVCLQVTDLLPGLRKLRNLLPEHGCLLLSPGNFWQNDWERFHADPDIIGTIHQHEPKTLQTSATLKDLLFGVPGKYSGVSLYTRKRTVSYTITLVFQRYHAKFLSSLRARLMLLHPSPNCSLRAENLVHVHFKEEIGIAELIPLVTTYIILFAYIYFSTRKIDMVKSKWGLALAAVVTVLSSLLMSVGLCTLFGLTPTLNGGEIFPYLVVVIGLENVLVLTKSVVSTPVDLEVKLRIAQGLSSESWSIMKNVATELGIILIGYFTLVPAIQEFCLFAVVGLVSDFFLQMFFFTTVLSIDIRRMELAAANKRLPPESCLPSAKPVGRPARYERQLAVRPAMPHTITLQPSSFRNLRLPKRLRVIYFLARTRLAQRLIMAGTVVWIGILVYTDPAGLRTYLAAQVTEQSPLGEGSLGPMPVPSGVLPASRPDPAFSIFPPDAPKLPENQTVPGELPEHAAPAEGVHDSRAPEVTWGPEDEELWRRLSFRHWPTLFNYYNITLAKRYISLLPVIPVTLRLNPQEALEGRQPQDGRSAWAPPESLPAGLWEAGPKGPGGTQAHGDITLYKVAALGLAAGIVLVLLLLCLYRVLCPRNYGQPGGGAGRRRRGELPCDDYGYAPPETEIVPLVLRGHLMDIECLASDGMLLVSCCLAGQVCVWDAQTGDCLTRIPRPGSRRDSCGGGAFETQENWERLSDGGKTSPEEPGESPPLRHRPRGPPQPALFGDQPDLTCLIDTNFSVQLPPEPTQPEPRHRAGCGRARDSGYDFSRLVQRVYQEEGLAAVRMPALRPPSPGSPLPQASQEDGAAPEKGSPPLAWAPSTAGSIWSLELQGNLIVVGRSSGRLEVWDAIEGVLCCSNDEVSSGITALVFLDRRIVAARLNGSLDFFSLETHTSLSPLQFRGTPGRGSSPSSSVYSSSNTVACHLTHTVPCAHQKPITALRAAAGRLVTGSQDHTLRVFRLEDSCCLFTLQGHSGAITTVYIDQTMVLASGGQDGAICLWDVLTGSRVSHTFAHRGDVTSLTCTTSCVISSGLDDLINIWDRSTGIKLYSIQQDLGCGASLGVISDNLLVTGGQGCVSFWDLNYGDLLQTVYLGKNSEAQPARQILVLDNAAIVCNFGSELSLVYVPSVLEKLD
The experiment in a line: co-IP.

Results are given in words; binding and its absence hold for the method and conditions named. In cells and extracts the contact can be indirect. Some results given as binding are weak or reduced against the parent protein; the word gives no strength. Where a sequence is shown, tags or fusion partners need not be part of it.

B1: Sac1, endogenous in HEK 293T (protein, UniProt Q9NTJ5 1-587)
chain: MATAAYEQLKLHITPEKFYVEACDDGADDVLTIDRVSTEVTLAVKKDVPPSAVTRPIFGILGTIHLVAGNYLIVITKKIKVGEFFSHVVWKATDFDVLSYKKTMLHLTDIQLQDNKTFLAMLNHVLNVDGFYFSTTYDLTHTLQRLSNTSPEFQEMSLLERADQRFVWNGHLLRELSAQPEVHRFALPVLHGFITMHSCSINGKYFDWILISRRSCFRAGVRYYVRGIDSEGHAANFVETEQIVHYNGSKASFVQTRGSIPVFWSQRPNLKYKPLPQISKVANHMDGFQRHFDSQVIIYGKQVIINLINQKGSEKPLEQTFATMVSSLGSGMMRYIAFDFHKECKNMRWDRLSILLDQVAEMQDELSYFLVDSAGQVVANQEGVFRSNCMDCLDRTNVIQSLLARRSLQAQLQRLGVLHVGQKLEEQDEFEKIYKNAWADNANACAKQYAGTGALKTDFTRTGKRTHLGLIMDGWNSMIRYYKNNFSDGFRQDSIDLFLGNYSVDELESHSPLSVPRDWKFLALPIIMVVAFSMCIICLLMAGDTWTETLAYVLFWGVASIGTFFIILYNGKDFVDAPRLVQKEKID
With B1, the binding entry in assay [1] and in assay [2] was “binds weakly” throughout.
